# Results are given in words; binding and its absence hold for the method and conditions named. A result given as binding can be weak or reduced; the word gives no strength.
# The chains behind the UniProt entries cited, without tags or fusion partners. Where a name states a change or a piece, a line headed by the entry shows the natural chain unless it says otherwise.
# UniProt F2DCT9: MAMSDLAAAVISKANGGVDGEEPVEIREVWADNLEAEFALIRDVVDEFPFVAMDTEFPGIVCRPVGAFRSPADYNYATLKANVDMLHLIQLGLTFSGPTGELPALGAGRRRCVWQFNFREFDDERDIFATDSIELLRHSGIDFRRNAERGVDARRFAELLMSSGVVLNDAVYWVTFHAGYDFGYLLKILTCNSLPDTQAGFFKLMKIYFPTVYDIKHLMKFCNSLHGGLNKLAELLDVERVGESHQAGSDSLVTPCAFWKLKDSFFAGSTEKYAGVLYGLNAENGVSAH
# UniProt F2EF82: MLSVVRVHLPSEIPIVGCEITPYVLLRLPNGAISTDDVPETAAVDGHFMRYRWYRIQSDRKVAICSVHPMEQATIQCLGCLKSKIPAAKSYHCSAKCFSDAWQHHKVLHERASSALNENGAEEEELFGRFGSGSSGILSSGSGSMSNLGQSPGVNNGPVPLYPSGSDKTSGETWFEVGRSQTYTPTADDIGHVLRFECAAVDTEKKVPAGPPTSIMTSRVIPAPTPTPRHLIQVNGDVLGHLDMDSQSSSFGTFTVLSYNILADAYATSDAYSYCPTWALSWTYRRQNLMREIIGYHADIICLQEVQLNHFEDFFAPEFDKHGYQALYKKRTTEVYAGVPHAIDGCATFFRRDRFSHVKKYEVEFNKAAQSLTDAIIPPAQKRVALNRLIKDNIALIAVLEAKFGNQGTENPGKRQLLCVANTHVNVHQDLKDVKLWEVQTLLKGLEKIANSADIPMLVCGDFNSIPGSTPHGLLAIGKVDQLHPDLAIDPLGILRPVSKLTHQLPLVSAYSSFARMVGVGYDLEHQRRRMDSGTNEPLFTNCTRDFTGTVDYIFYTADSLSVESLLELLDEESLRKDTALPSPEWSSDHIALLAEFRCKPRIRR
# Molecular target: MBP-HvCAF1 (barley (Hordeum vulgare)) (UniProt F2DCT9)
# Assay: pull-down; MBP pull-down: CCR4-His or P-His incubated with MBP-HvCAF1 or MBP and anti-MBP beads; blots with anti-His or anti-MBP; both purified
substance,measurement,value
HvCCR4 fused with a 6 x His tag (HvCCR4-His) (from UniProt F2EF82) (enzyme),binding,binds

# From PMC7105381
